In this assay the target is Protein Phosphatase 2A (PP2A) (UniProt P63330). Briefly: co-IP; mES cells, PP2A and β-Catenin, control cells without Ube2s depletion; strategy as for HA-tagged CK1.

Protein sequences, listed by entry. Tags and fused reporters are not part of them. Lines headed by an entry give the natural chain unless they say otherwise; changes in a name come on top.
UniProt P63330: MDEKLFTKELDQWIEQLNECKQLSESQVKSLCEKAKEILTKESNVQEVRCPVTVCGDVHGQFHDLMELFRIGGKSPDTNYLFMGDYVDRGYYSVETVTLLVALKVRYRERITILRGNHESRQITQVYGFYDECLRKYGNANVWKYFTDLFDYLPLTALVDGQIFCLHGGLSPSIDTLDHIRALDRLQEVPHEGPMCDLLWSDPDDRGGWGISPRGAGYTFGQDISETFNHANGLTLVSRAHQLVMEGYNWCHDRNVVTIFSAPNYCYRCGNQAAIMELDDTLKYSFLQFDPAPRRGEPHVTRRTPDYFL
UniProt Q02248: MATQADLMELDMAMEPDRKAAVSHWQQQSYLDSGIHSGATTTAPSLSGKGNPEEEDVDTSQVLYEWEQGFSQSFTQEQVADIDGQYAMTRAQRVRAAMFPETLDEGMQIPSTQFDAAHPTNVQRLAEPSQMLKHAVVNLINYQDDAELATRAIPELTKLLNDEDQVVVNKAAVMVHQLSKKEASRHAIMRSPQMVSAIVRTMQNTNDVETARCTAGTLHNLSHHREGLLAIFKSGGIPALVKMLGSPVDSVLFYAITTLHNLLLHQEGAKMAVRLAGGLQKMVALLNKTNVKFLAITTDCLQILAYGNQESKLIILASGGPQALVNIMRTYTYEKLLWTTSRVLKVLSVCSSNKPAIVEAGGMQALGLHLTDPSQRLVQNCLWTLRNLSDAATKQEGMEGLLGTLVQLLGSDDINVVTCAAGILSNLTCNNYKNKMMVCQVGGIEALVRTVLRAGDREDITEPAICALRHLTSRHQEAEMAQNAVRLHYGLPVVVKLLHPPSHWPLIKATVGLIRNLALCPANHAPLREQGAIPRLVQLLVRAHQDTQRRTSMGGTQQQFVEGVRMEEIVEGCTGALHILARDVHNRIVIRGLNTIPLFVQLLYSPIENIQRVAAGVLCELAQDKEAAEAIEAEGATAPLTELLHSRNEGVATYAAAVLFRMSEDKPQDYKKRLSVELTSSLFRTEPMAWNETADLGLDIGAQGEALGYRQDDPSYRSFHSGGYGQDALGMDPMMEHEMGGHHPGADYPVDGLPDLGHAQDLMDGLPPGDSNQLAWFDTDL

No constants are given. Whether binding was seen depends on the method and setting. In cells and extracts the contact can be indirect. Binding can be weak; no strength is given.

For “β-Catenin, mouse, endogenous (from UniProt Q02248 1-781)”, the binding result is “binds”.

Values taken from paper PMC5908793.
